Record: PubChem BioAssay AID1671195 (Yale University, 2021)
Shown is a random part of about 22,000 reagents tested. About 1,510 of all reagents (6.9%) count as active. 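Active includes knockdowns raising or lowering LDL uptake; positive z-scores mean more uptake, negative mean less.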 A number with no mark means an inactive call.

Screen: 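Knockdowns that increase or decrease uptake of fluorescent LDL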 (primary screen)
System: human Huh7 hepatoma cells
Reagents: siRNA pool against human genes, 18 nM
Timing: about 2 to 2.5 days of knockdown, then 8 h LDL uptake
Conditions: DiI-labelled LDL at 30 µg/ml for 8 h, in lipoprotein-deficient serum medium
Detection: 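Fluorescent LDL signal imaged in cells, scaled to the plate median, robust z-score for each replicate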
Scale: robust z-score: higher = more LDL uptake after knockdown
Rule for the call: 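a gene counts as active if at least two replicate z-scores exceed ±2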

| Target gene | robust z-score, replicate 1 | robust z-score, replicate 2 | robust z-score, replicate 3 |
| --- | --- | --- | --- |
| SLC24A2 (GeneID 25769) | 0.458 | -0.217 | 0.342 |
| LOC441566 (retired record) (GeneID 441566) | 1.71 | 1.17 | 1.37 |
| CIAPIN1 (GeneID 57019) | -0.235 | -0.986 | -1.42 |
| RCOR3 (GeneID 55758) | 0.839 | -1.13 | 0.808 |
| RPUSD4 (GeneID 84881) | -0.508 | -0.488 | -0.48 |
| LYSMD2 (GeneID 256586) | 0.251 | 0.323 | 0.526 |
| PSMA7 (GeneID 5688) | -0.966 | -1.3 | -1.31 |
| EIF3I (GeneID 8668) | -1.42 | -0.531 | -0.853 |
| LOC401068 (retired record) (GeneID 401068) | -0.316 | 1.08 | -0.317 |
| LOC389707 (retired record) (GeneID 389707) | -0.41 | -0.276 | -0.404 |
| GBA2 (GeneID 57704) | -0.203 | -0.922 | -0.574 |
| CDT1 (GeneID 81620) | -0.328 | 0.0478 | -0.623 |
| NAPRT (GeneID 93100) | 0.236 | 0.146 | 0.145 |
| RPUSD2 (GeneID 27079) | 0.732 | 1.39 | 0.964 |
| GET4 (GeneID 51608) | -1.76 | -1.18 | -1.25 |
| USP18 (GeneID 11274) | -1.03 | -1.21 | -1.12 |
| MRPL53 (GeneID 116540) | -1.89 | -0.523 | -0.503 |
| IFT25 (GeneID 51668) | 0.412 | 0.68 | 0.157 |
| CISH (GeneID 1154) | 4.68 (active) | 3.38 | 2.32 |
| PIWIL4 (GeneID 143689) | 1.25 | 0.892 | 1.3 |
| ATP13A4 (GeneID 84239) | -0.112 | -0.356 | 0.27 |
| GPRASP2 (GeneID 114928) | -0.276 | -0.412 | -0.00521 |
| SHROOM4 (GeneID 57477) | -0.245 | -1.15 | -1.43 |
| CHCHD10 (GeneID 400916) | -1.48 | -1.35 | -0.986 |
| KRT74 (GeneID 121391) | -0.00831 | -0.184 | -0.956 |
| LOC440954 (retired record) (GeneID 440954) | 0.0257 | 0.568 | 1.02 |
| LINC02843 (GeneID 286238) | 0.435 | -0.199 | -0.112 |
| DCAF17 (GeneID 80067) | 0.716 | 1.37 | 1.95 |
